These are yes or no findings as the source states them, for the method shown. Binding seen in cells or lysates may run through a third protein. Some results given as binding are weak or reduced against the parent protein; the word gives no strength.
Target: T1, endogenous Bcl3 (B cell leukemia/lymphoma 3) of mouse liver (mouse (endogenous in liver)) (UniProt Q9Z2F6)
T1 sequence: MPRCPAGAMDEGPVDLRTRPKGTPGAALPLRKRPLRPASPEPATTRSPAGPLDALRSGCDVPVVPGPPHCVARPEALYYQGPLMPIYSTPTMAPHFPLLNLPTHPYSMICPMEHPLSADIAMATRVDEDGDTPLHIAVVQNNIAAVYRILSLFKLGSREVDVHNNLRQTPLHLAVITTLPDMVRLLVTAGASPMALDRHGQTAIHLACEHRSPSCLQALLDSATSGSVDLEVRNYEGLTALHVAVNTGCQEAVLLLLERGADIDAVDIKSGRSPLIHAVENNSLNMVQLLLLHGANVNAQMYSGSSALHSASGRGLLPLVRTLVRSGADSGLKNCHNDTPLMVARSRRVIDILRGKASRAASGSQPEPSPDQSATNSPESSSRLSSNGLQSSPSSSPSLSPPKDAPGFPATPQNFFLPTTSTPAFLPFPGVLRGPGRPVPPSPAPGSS
Assay: co-IP; endogenous Bcl3 immunoprecipitated with an anti-Bcl3 antibody from liver homogenates of WT mice; Nrf2 detected by Western blotting

binding: binds
B1: endogenous Nrf2 (nuclear factor erythroid 2 like 2) of mouse liver (protein, UniProt Q60795 1-597)
chain: MMDLELPPPGLQSQQDMDLIDILWRQDIDLGVSREVFDFSQRQKDYELEKQKKLEKERQEQLQKEQEKAFFAQFQLDEETGEFLPIQPAQHIQTDTSGSASYSQVAHIPKQDALYFEDCMQLLAETFPFVDDHESLALDIPSHAESSVFTAPHQAQSLNSSLEAAMTDLSSIEQDMEQVWQELFSIPELQCLNTENKQLADTTAVPSPEATLTEMDSNYHFYSSISSLEKEVGNCGPHFLHGFEDSFSSILSTDDASQLTSLDSNPTLNTDFGDEFYSAFIAEPSDGGSMPSSAAISQSLSELLDGTIEGCDLSLCKAFNPKHAEGTMEFNDSDSGISLNTSPSRASPEHSVESSIYGDPPPGFSDSEMEELDSAPGSVKQNGPKAQPAHSPGDTVQPLSPAQGHSAPMRESQCENTTKKEVPVSPGHQKAPFTKDKHSSRLEAHLTRDELRAKALHIPFPVEKIINLPVDDFNEMMSKEQFNEAQLALIRDIRRRGKNKVAAQNCRKRKLENIVELEQDLGHLKDEREKLLREKGENDRNLHLLKRRLSTLYLEVFSMLRDEDGKPYSPSEYSLQQTRDGNVFLVPKSKKPDTKKN
